Measured values reported in US20170321220A1 (INDIANA UNIVERSITY RESEARCH AND TECHNOLOGY, published 2017).
These are yes or no findings as the source states them, for the method shown. Some binding calls cover weakened binding; strength is not graded here.

By UniProt entry, the sequences of proteins in these tests, tags left out. Residues count along the entry.
UniProt P26747, residues 2-430: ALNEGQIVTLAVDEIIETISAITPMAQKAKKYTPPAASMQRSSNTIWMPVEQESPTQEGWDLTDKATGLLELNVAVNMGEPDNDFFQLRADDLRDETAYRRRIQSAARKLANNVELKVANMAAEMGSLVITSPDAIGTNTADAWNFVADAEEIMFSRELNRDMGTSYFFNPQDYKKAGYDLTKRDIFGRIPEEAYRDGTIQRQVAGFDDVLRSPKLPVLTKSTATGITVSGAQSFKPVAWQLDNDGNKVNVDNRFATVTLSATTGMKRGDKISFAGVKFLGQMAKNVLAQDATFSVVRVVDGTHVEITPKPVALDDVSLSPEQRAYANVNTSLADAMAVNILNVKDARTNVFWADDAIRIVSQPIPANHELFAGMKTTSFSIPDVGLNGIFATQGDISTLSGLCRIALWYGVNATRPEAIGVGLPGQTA

Key:
[1] = biological target: EX P22 VLP (expanded form of the bacteriophage P22 virus-like particle) (bacteriophage P22 (filing: P22 VLP from Salmonella typhimurium)) (UniProt P26747); experiment: SPR
[2] = biological target: EX P22 VLP (expanded form of the bacteriophage P22 virus-like particle) (bacteriophage P22 (filing: P22 VLP from Salmonella typhimurium)) (UniProt P26747); experiment: SEC-MALS-QELS, binding in solution
[3] = biological target: EX P22 VLP (expanded form of the bacteriophage P22 virus-like particle) (bacteriophage P22 (filing: P22 VLP from Salmonella typhimurium)) (UniProt P26747); experiment: SEC-MALS, EX P22 incubated with excess DecΔ11

Measured: binding

B1: DecΔ11 (Dec lacking the first 11 N-terminal residues) (other)
chain: MGSSHHHHHHSQDPLYKDADGVYVSALPIKAIKYANDGSANAEFDGPYADQYMSAQTVAVFKPEVGGYLFRSQYGELLYMSKTAFEANYTSASGSVANAETADKLSTARTITLTGAVTGSASFDGSANVTIETTSGS
binds: all assays above
